These are yes or no findings as the source states them, for the method shown. In cells and extracts the contact can be indirect. Some results given as binding are weak or reduced against the parent protein; the word gives no strength.
Target: DsRed-tagged N-cadherin cytoplasmic domain (DNCT) (UniProt P15116)
Experiment: co-IP; anti-FLAG mAb preabsorbed to protein G-Sepharose on lysates of DsRed+, DNCT+ or DNCTSA+ MDCK T23 cells; lysis in 25 mM Tris-HCl pH 7.4, 1% Triton X-100, 2 mM EDTA; immunoblot of co-precipitates

By UniProt entry, the sequences of proteins in these tests, tags left out. Residues count along the entry.
UniProt P15116, residues 746-906: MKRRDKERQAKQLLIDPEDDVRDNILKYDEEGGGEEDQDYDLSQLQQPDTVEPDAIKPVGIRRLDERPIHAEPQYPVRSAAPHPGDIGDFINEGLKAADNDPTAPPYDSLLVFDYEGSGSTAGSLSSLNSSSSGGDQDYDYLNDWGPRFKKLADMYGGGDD

- binding: binds
B1: β-catenin (protein, UniProt B6V8E6 1-781)
chain: MATQADLMELDMAMEPDRKAAVSHWQQQSYLDSGIHSGATTTAPSLSGKGNPEEEDVDTTQVLYEWEQGFSQSFTQEQVADIDGQYAMTRAQRVRAAMFPETLDEGMQIPSTQFDAAHPTNVQRLAEPSQMLKHAVVNLINYQDDAELATRAIPELTKLLNDEDQVVVNKAAVMVHQLSKKEASRHAIMRSPQMVSAIVRTMQNTNDVETARCTAGTLHNLSHHREGLLAIFKSGGIPALVKMLGSPVDSVLFYAITTLHNLLLHQEGAKMAVRLAGGLQKMVALLNKTNVKFLAITTDCLQILAYGNQESKLIILASGGPQALVNIMRTYTYEKLLWTTSRVLKVLSVCSSNKPAIVEAGGMQALGLHLTDPSQRLVQNCLWTLRNLSDAATKQEGMEGLLGTLVQLLGSDDINVVTCAAGILSNLTCNNYKNKMMVCQVGGIEALVRTVLRAGDREDITEPAICALRHLTSRHQEAEMAQNAVRLHYGLPVVVKLLHPPSHWPLIKATVGLIRNLALCPANHAPLREQGAIPRLVQLLVRAHQDTQRRTSMGGTQQQFVEGVRMEEIVEGCTGALHILARDVHNRIVIRGLNTIPLFVQLLYSPIENIQRVAAGVLCELAQDKEAAEAIEAEGATAPLTELLHSRNEGVATYAAAVLFRMSEDKPQDYKKRLSVELTSSLFRTEPMAWNETADLGLDIGAQGEPLGYRQDDPSYRSFHSGGYGQDALGMDPMMEHEMGGHHPGADYPVDGLPDLGHAQDLMDGLPPGDSNQLAWFDTDL
